Data as given in PubChem BioAssay AID1259425 (University of Nebraska Medical Center, 2018).
In all, the deposit lists about 14,000 reagents; shown is a part drawn at random. Further read-outs or replicates are left out here. The record does not give: the time to read-out.

Screen: 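Seek colon cancer weak points whose silencing resembles KSR1 loss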 (primary screen)
Cell system: HCT116 human colon cancer cells
Reagents: siRNA pool against human genes, 50 nM siRNA
Measurement: 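After 50 nM siRNA pool, branched-DNA assay measures six marker transcripts per well, minus blank, normalised to the geometric mean of two housekeeping transcripts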
Scale: BNIP3L mRNA: higher = more BNIP3L transcript after knockdown; NDRG1 mRNA: higher = more NDRG1 transcript after knockdown

The opening 4 entries, to show the layout:
| Target gene | BNIP3L mRNA, set 1 | NDRG1 mRNA, set 1 |
| --- | --- | --- |
| INPP4B (inositol polyphosphate-4-phosphatase type II B) | 0.152 | 0.118 |
| ASNS (asparagine synthetase (glutamine-hydrolyzing)) | 0.071 | 0.0748 |
| CCL3 (C-C motif chemokine ligand 3) | 0.0846 | 0.0843 |
| NDUFS4 (NADH:ubiquinone oxidoreductase subunit S4) | 0.0795 | 0.0908 |

The listing, from the first entry:
| Target gene | BNIP3L mRNA, set 1 | NDRG1 mRNA, set 1 |
| --- | --- | --- |
| INPP4B (inositol polyphosphate-4-phosphatase type II B) | 0.152 | 0.118 |
| ASNS (asparagine synthetase (glutamine-hydrolyzing)) | 0.071 | 0.0748 |
| CCL3 (C-C motif chemokine ligand 3) | 0.0846 | 0.0843 |
| NDUFS4 (NADH:ubiquinone oxidoreductase subunit S4) | 0.0795 | 0.0908 |
| TRH (thyrotropin releasing hormone) | 0.0513 | 0.163 |
| KCNQ5 (potassium voltage-gated channel subfamily Q member 5) | 0.0861 | 0.11 |
| ABCB5 (ATP binding cassette subfamily B member 5) | 0.138 | 0.217 |
| RREB1 (ras responsive element binding protein 1) | 0.0609 | 0.128 |
| BRS3 (bombesin receptor subtype 3) | 0.108 | 0.0885 |
| CNOT8 (CCR4-NOT transcription complex subunit 8) | 0.05 | 0.276 |
| PREX2 | 0.144 | 0.494 |
| JADE2 (jade family PHD finger 2) | 0.158 | 0.464 |
| SAMD4A (sterile alpha motif domain containing 4A) | 0.1 | 0.207 |
| HM13 (histocompatibility minor 13) | 0.0743 | 0.0513 |
| ALPK1 (alpha kinase 1) | 0.0806 | 0.11 |
| ALKBH3 (alkB homolog 3, alpha-ketoglutarate dependent dioxygenase) | 0.085 | 0.142 |
| MRAP (melanocortin 2 receptor accessory protein) | 0.187 | 0.187 |
| PANK4 (pantothenate kinase 4 (inactive)) | 0.15 | 0.252 |
| HHAT (hedgehog acyltransferase) | 0.0738 | 0.26 |
| RGCC (regulator of cell cycle) | 0.144 | 0.222 |
| USP6NL (USP6 N-terminal like) | 0.205 | 0.252 |
| AP1S2 (adaptor related protein complex 1 subunit sigma 2) | 0.0726 | 0.32 |
| TP53I3 (tumor protein p53 inducible protein 3) | 0.224 | 0.268 |
| COX6B1 (cytochrome c oxidase subunit 6B1) | 0.017 | 0.171 |
| FXYD3 (FXYD domain containing ion transport regulator 3) | 0.14 | 0.146 |
| IGLL1 (immunoglobulin lambda like polypeptide 1) | 0.0595 | 0.467 |
| MRPS9 (mitochondrial ribosomal protein S9) | 0.0513 | 0.148 |
| ZEB2 (zinc finger E-box binding homeobox 2) | 0.0578 | 0.0813 |
| NPC1 (NPC intracellular cholesterol transporter 1) | 0.0696 | 0.139 |
| UNC50 (unc-50 inner nuclear membrane RNA binding protein) | 0.103 | 0.151 |
| IFNLR1 (interferon lambda receptor 1) | 0.0822 | 0.219 |
| GUCA2A (guanylate cyclase activator 2A) | 0.248 | 0.188 |
| TSPAN12 (tetraspanin 12) | 0.144 | 0.29 |
| ACOT7 (acyl-CoA thioesterase 7) | 0.0788 | 0.105 |
